Assay results published in PubChem BioAssay AID1259354 (Paczesny and Yang Labs, IUPUI and University of Michigan, 2018).
The whole screen tested about 78,000 compounds, of which about 1,800 (2.3%) were called active. This list was built around the results that the source calls inconclusive (neither active nor inactive); the mix of calls is not that of the screen. No stated cut-off is given here; in the data, active means inhibition above about 30%; inconclusive means mostly about 10% to 28%; inactive means weaker than that.

Sequences of proteins named here, by UniProt entry; tags and fusion partners are left off. A change or cut given only in a name is not applied to a line headed by its entry.
UniProt Q01638: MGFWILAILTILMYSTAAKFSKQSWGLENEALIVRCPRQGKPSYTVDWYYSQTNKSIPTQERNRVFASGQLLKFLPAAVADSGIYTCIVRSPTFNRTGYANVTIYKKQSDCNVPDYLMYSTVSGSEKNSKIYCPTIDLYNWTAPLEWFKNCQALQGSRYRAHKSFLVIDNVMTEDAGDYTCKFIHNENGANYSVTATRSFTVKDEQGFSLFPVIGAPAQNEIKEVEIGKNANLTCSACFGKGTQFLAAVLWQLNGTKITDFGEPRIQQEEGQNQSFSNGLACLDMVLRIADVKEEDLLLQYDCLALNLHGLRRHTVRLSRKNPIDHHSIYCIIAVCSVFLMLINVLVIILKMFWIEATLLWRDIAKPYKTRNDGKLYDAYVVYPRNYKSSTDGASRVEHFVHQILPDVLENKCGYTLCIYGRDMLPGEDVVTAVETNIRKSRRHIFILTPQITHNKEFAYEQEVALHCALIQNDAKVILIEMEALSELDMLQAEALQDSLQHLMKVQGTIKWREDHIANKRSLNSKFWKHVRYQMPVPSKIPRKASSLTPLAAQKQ

What follows are compounds tested against Interleukin-1 receptor-like 1 (Homo sapiens) (UniProt Q01638) (assay: blocks human ST2 binding to IL-33, primary screen, biochemical, AlphaLISA (AID 1259354)). Settings: AlphaLISA ST2-Fc/biotin-IL-33 interaction, 1 h; at 17 µM, active compounds read high.
For `FC(F)(F)c1cc(-c2ccccc2)nc(NCc2cccs2)n1`, the inhibition was inconclusive: 10%.
In the case of `COC1CCN(Cc2nc(Cc3ccccc3Cl)no2)CC1`, the inhibition was inconclusive: 16%.
`CCCCCC[C@@H]([C@@H](C)O)n1cnc2c(N)ncnc21` was tested, and the inhibition was inconclusive: 15%.
With `CCOc1cc(C(=O)Nc2cc(N3CCCS3(=O)=O)ccc2OC)cc(OCC)c1OCC` the inhibition was inconclusive: 11%.
With `COCCn1c(CNS(=O)(=O)c2cccc(Cl)c2)nc2cccnc21` the inhibition was “inactive”.
In the case of `Cc1ccc(CN2CCCC(OCc3cccnc3)C2)o1` (stereo unspecified), the inhibition was inconclusive: 15%.
In the case of `COc1ccccc1N1C(=O)CC(N2CCN(c3ccc(F)cc3)CC2)C1=O` (stereo unspecified), the inhibition was “inactive”.
In the case of `CCN1CCCC1CNC(=O)CCC1CCN(Cc2[nH]c3ccc(OC)cc3c2C)CC1` (stereo unspecified), the inhibition was inconclusive: 15%.
In the case of `Cc1ccc(S(=O)(=O)NC[C@H]2O[C@@H](CC(=O)NC3CC3)[C@H](O)[C@@H]2O)cc1`, the inhibition was inconclusive: 15%.
With `CC(C)(C)C(=O)N[C@H]1CO[C@H]2[C@@H]1OC[C@@H]2Nc1nccc(-c2cccc(F)c2)n1` the inhibition was inconclusive: 18%.
For `CSc1nc2c(c(=O)[nH]1)C(c1ccc(O)cc1)C1=C(CC(C)(C)CC1=O)N2` (stereo unspecified), the inhibition was inconclusive: 12%.
`COc1cccc(-n2cc(CN(C)Cc3cccc4nonc34)cn2)c1` was tested, and the inhibition was inconclusive: 24%.
`Cc1ccc2nc(C3CCCN3CC(=O)NCc3ccccn3)[nH]c2c1` (stereo unspecified) was tested, and the inhibition was inconclusive: 14%.
With `COc1ccc([N+](=O)[O-])cc1NC(C)=O` the inhibition was inconclusive: 18%.
In the case of `O=C(O)CCC1C(=O)CCC1(C(=O)O)c1ccccc1` (stereo unspecified), the inhibition was “inactive”.
With `COc1ccc(C2C=C(c3ccc(Br)cc3)Nc3ncnn32)cc1OC` (stereo unspecified) the inhibition was inconclusive: 13%.
With `CC1=C[C@@H](CNCc2cccnc2)[C@H](C(C)C)C[C@H]1Cc1nnc(-c2ccc(C)cc2)o1` the inhibition was inconclusive: 16%.
For `Cc1ccc(-n2c(SCC(=O)Nc3ccccc3F)nc3c(c2=O)SCC3)cc1`, the inhibition was active: 32%.
In the case of `COc1ccc(CNC(=O)COc2ccccc2C(=O)NCCc2ccc(OC)c(OC)c2)cc1`, the inhibition was “inactive”.
In the case of `O=C(O)c1ccc(NC(=O)c2ccc(N3C(=O)C4C5CCC(C5)C4C3=O)cc2)cc1` (stereo unspecified), the inhibition was inconclusive: 13%.
For `O=S(=O)(Nc1ccc(Br)cc1)c1ccc(Br)s1`, the inhibition was “inactive”.
For `O=C(CONc1ncnc2nonc12)N1CCOCC1`, the inhibition was “inactive”.
For `CCC(=O)N1c2ccccc2-c2nnc(SC)nc2OC1c1ccc(OC)c(OC)c1OC` (stereo unspecified), the inhibition was inconclusive: 24%.
`CC(C)(C)NC(=O)/C(=C\c1cccnc1)NC(=O)c1ccco1` was tested, and the inhibition was “inactive”.
With `CC(C)Sc1nc2c(c(=O)n1-c1ccc(F)cc1)SCC2` the inhibition was inconclusive: 17%.
For `O=C(CNS(=O)(=O)c1ccc(Br)s1)N1CCN(c2cccc(Cl)c2)CC1`, the inhibition was “inactive”.
With `CCNC(=O)C1CCN(C(=O)CCSCc2ccc(F)cc2)C1` (stereo unspecified) the inhibition was inconclusive: 10%.
In the case of `O=C(Nc1cc(Br)ccc1O)c1noc2c1CCC2`, the inhibition was inconclusive: 14%.
In the case of `CC(=O)Nc1ccc(OC(=O)c2cc3cc(Br)ccc3oc2=O)cc1`, the inhibition was inconclusive: 11%.
`Nc1nncn1C(=O)COc1ccc(Br)cc1Cl` was tested, and the inhibition was inconclusive: 19%.
For `COc1cc(C2C(C#N)=C(N)Oc3n[nH]c(-c4ccncc4)c32)cc(OC)c1OC` (stereo unspecified), the inhibition was inconclusive: 13%.
In the case of `N[C@@H](CCC(=O)N[C@H](CSN=O)C(=O)NCC(=O)O)C(=O)O`, the inhibition was inconclusive: 10%.
For `COc1ccc(S(=O)(=O)NCc2nc3cccnc3n2Cc2ccccc2OC)cc1`, the inhibition was “inactive”.
For `N#Cc1nc(COc2ccc(Cl)cc2)oc1N1CCCCC1`, the inhibition was active: 73%.
For `Cc1ccc(-n2nc(C(=O)N3CCOC(C(F)(F)F)C3)c(O)cc2=O)cc1` (stereo unspecified), the inhibition was “inactive”.
For `COc1ccc(CNC(=O)CC[C@H]2CNC(=O)[C@H]3NCC[C@H]3N2C)cc1`, the inhibition was inconclusive: 10%.
`O=[N+]([O-])c1cc(-c2ncnn2-c2ccc(Br)cc2)ccc1Cl` was tested, and the inhibition was inconclusive: 17%.
With `COc1ccc2cc(CN3CCN(S(=O)(=O)N(C)C)CC3)c(=O)[nH]c2c1` the inhibition was inconclusive: 18%.
In the case of `Cc1nn(-c2ccccc2)c2c1C(c1cccnc1)C(C#N)=C(N)O2` (stereo unspecified), the inhibition was “inactive”.
For `Cc1cc(C)c(S(=O)(=O)Nc2ccc3oc(=O)sc3c2)c(C)c1`, the inhibition was inconclusive: 12%.
`O=C(Nc1ncc2c(n1)CC(c1ccco1)CC2=O)c1ccccc1` (stereo unspecified) was tested, and the inhibition was inconclusive: 14%.
With `COc1ccc(C2SCC(=O)N2c2ccccc2)cc1` (stereo unspecified) the inhibition was “inactive”.
With `C/C(=C\C(=O)c1cccn(Cc2ccccc2)c1=O)c1cccn(Cc2ccccc2)c1=O` the inhibition was inconclusive: 26%.
`Cc1nc2c(ccc3nc(NC(=O)CCOc4ccccc4)sc32)s1` was tested, and the inhibition was “inactive”.
With `O=C(c1cc(CN2CCCC(O)C2)on1)N1CC=CCC1` (stereo unspecified) the inhibition was inconclusive: 15%.
For `O=[N+]([O-])c1ccc(S(=O)(=O)NCCc2cccc(Cl)c2)cc1`, the inhibition was “inactive”.
`Cc1nc2c(c(N3CCC(Oc4ccccc4C)CC3)n1)CNC2` was tested, and the inhibition was “inactive”.
With `CC1=CC(C)(C)Nc2ccc(OC(=O)COc3ccc(Cl)cc3)cc21` the inhibition was “inactive”.
`Cc1cccn2c(=O)c3cc(C(=O)N4CCCCC4)n(C)c3nc12` was tested, and the inhibition was “inactive”.
With `CCOc1ncccc1-c1ncnc2scc(C)c12` the inhibition was inconclusive: 16%.
With `N#C/C(=C\c1ccccc1)c1nc(-c2ccccc2)cs1` the inhibition was active: 65%.
For `CCn1cnnc1CN(C)C(=O)c1ccc2c(c1)OCCN2C`, the inhibition was inconclusive: 11%.
For `CCOC(=O)C1C(=O)C=C(c2cccs2)CC1c1cc(OC)ccc1OC` (stereo unspecified), the inhibition was inconclusive: 17%.
For `Cc1ccc(S(N)(=O)=O)cc1NS(=O)(=O)c1ccc(Cl)cc1`, the inhibition was “inactive”.
`CC(C)C[C@@H](N)C(=O)N1CCC(Oc2ccccc2F)CC1` was tested, and the inhibition was inconclusive: 13%.
For `O=[N+]([O-])c1cc(N=Cc2nc(-c3ccccc3)oc2O)ccc1Cl`, the inhibition was “inactive”.
For `Cc1ccc(CN2CCC(CN(C)Cc3ccc(OC(C)C)cc3)CC2)o1`, the inhibition was “inactive”.
`CC1(C)CC(=O)C2=C(C1)OC(N)=C(C#N)C2c1cccc(Br)c1` (stereo unspecified) was tested, and the inhibition was inconclusive: 13%.
`Cc1c(CCCN)c2ccccc2n1-c1ccccc1` was tested, and the inhibition was active: 34%.
For `N#Cc1c(N)c(C(=O)c2ccccc2)n2c1CCC2`, the inhibition was inconclusive: 20%.
For `COc1ccc(/C=C/C(=O)Nc2ccc(Cl)cc2[N+](=O)[O-])cc1OC`, the inhibition was inconclusive: 19%.
